Experimental data taken from PubChem BioAssay (EPA / NIEHS).
The shares of active, inactive and inconclusive entries below differ from those in the screen. A potency beside an inconclusive call is a rough fit, not a confirmed value. Activity calls are given as the source filed them. Rule for the calls: active = hit-call score of the fitted dose curve at least 0.9, where 1 is the maximum; inconclusive = response in the unintended direction; inactive = score below 0.9.

Chains of the proteins cited; added tags and fusions are not shown. Lines headed by an entry give the natural chain unless they say otherwise; changes in a name come on top.
UniProt Q9Y233: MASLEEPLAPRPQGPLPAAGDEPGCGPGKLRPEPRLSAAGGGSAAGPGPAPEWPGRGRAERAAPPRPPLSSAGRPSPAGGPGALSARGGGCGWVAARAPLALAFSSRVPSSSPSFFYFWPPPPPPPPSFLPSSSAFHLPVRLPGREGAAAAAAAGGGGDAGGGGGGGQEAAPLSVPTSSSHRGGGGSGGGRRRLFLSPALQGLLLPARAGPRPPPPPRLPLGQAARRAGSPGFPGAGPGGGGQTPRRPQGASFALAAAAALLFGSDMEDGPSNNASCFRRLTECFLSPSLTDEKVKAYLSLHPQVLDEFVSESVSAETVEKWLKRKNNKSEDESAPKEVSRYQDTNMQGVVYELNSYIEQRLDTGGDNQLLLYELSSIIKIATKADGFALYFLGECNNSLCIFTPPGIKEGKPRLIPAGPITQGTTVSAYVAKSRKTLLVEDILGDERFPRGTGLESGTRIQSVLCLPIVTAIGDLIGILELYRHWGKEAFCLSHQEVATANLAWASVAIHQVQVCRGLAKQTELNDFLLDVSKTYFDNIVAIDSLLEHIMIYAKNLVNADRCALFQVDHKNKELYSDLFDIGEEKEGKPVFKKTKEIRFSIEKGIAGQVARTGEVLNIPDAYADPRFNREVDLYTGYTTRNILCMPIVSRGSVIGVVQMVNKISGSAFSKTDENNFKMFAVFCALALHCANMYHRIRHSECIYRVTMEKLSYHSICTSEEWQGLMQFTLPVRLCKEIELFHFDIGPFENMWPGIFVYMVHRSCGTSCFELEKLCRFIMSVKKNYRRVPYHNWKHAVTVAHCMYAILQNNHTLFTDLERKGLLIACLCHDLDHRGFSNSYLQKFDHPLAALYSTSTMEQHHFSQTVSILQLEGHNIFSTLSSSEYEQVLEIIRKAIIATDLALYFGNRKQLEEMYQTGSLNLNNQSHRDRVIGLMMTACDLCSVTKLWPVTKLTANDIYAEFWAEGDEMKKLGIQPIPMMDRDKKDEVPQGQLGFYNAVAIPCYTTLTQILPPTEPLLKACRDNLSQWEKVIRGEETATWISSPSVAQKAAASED

biological target: human Phosphodiesterase 10 (PDE10), PDE10A (gene 10846) (UniProt Q9Y233); assay: NVS_ENZ_hPDE10: NovaScreen (NVS) Enzymatic Assay for human Phosphodiesterase 10 (PDE10) (AID 2283195)
Summary of the method: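 Fluorescence readout after mobility-shift separation of substrate and product, 1 h reaction with recombinant human enzyme. Single-concentration duplicates at 25 uM, then concentration-response up to 50 uM for chemicals reaching threshold; DMSO baseline.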

Structure (SMILES) | outcome | AC50
O=C1CCCC(=O)O1 | inactive | 
COc1cccc(-c2ccc(/C=C\CN3CCCCCC3)cc2Cl)c1 |  | active: 22.6 µM
OCC(CO)(CO)COCC(CO)(CO)CO |  | active: 23.1 µM
O=c1[nH]cnc2c1ncn2[C@H]1CC[C@@H](CO)O1 | inactive | 
Cc1ccc(N)cc1O |  | inconclusive: 1.21 µM
c1ccc2ccccc2c1 |  | inconclusive: 25 µM
COc1ccccc1NC(=O)CC(C)=O |  | active: 7.87 µM
O=C(O)c1ccc2c(c1)nc(C(=O)NC1CCN(C3CC3)CC1)n2Cc1cc(-c2ccc(Cl)s2)on1 |  | inconclusive: 6 µM
CCCCC(CC)C(=O)OCCOCCOCCOCCOC(=O)C(CC)CCCC (stereo not drawn) |  | inconclusive: 25 µM
CCCCCCCCCCCCCCCC[N+](C)(C)CC | inactive | 
Cc1cncc(C)c1 |  | inconclusive: 0.106 µM
O=C1c2c(O)ccc(Nc3ccc(CCO)cc3)c2C(=O)c2c([N+](=O)[O-])ccc(O)c21 |  | inconclusive: 0.17 µM
CCCCOCC(C)O (stereo not drawn) | inactive | 
